Experimental data: PubChem BioAssay AID2685 (National Center for Advancing Translational Sciences (NCATS), 2010)
The other results are listed elsewhere or left out. The main result of the screen is listed elsewhere. These columns were measured beside it and carry no call. Compounds called inactive in the main read-out are mostly missing here. The note in brackets gives the kind of curve behind each potency; many fits are weak.

Experiment: qHTS Assay for Lipid Storage Modulators in Drosophila S3 Cells;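 for cell number change: cells counted by Cell Tracker Red CMTPX staining in the red channel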
Settings: BODIPY lipid droplet fluorescence, 18-24 h; for cell number change: measured here: cell count max response, cells fed with added oleic acid
How it was run: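 Drosophila S3 cells loaded with oleic acid (400 uM, as added) and compounds at several concentrations; lipid droplets imaged by 488-nm laser-scanning cytometry, 500–530 nm intensity and object ratio to cell channel. Percent activity normalized to 20 uM Triacsin C.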

[1] = measured here: lipid fluorescence (Fed channel) AC50, cells fed with added oleic acid
[2] = measured here: cell number channel AC50, cells fed with added oleic acid

| Compound | cell number change | AC50 [1] | AC50 [2] |
| --- | --- | --- | --- |
| CC(=O)c1c(C)[nH]c(C(=O)OCc2cccc(Cl)c2)c1C | -38.4% | 0.116 µM [falling, full curve, poor fit] |  |
| Cc1csc(NC(=O)C2CCCN(S(=O)(=O)c3cnc[nH]3)C2)n1 (stereo unspecified) | -6.08% |  |  |
| Cc1ccc(CNC(=O)CSc2nc3[nH]ncc3c(=O)[nH]2)cc1 | -22.6% | 13 µM [falling, partial curve] | 0.00461 µM [falling, full curve, poor fit] |
| O=C(Cc1ccc(F)cc1)NC(Cc1c[nH]c2ccccc12)C(=O)O (stereo unspecified) | -3.95% |  |  |
| COc1cc(C(=O)N[C@@H](Cc2c[nH]c3ccccc23)C(=O)O)cc(OC)c1OC | 23.5% |  |  |
| CN(C)C(=O)CN1CCN(Cc2cn(C)nc2-c2ccc3c(c2)OCCO3)CC1 | 9.27% | 5.17 µM [rising, partial curve] |  |
| COc1c(O)cccc1/C=N/NC(=O)Cn1ccnc1C |  | 4.11 µM [rising, partial curve, poor fit] | 5.8 µM [rising, partial curve, poor fit] |
| CCOC(=O)COc1c(Cl)cc(C2NC(=S)NC(c3ccccc3)=C2C(C)=O)cc1OC (stereo unspecified) | -0.953% | 0.82 µM [rising, partial curve, poor fit] |  |
| CON(c1nc(Cl)nc(N(C)C)n1)S(=O)(=O)c1ccc(C)cc1 | -8.33% |  |  |
| CC(C)OC(=O)C1CC=CCC1C(=O)Nc1ccc(Cl)cc1 (stereo unspecified) |  |  | 1.84 µM [rising, partial curve] |
| COc1cc2c(cc1OC)C(C(=O)NCC1COc3ccccc3O1)C(c1cccnc1)N(C)C2=O (stereo unspecified) | 156% |  | 18.4 µM [rising, partial curve] |
| CCc1ccc(N2CC(C(=O)NC3CC3)CC2=O)cc1 (stereo unspecified) | 22.5% | 29.1 µM [falling, single point] |  |
| O=C(CCNS(=O)(=O)c1ccc(Br)cc1)NCCCSc1ccccc1 | -8.42% | 8.2 µM [falling, partial curve, poor fit] |  |
| O=C(CCn1c(=O)c2ccccc2n(CC(=O)NC2CCCC2)c1=O)NCCc1ccc(Cl)cc1 | 28.1% |  | 1.3 µM [rising, full curve] |
| O=C(OCCN=C1NS(=O)(=O)c2ccccc21)C1CC(=O)N(c2ccc(Cl)cc2)C1 (stereo unspecified) | 0.318% | 6.51 µM [falling, single point] | 3.26 µM [falling, single point] |
| COc1cc(NC(=O)c2cc3nc(C)cc(C)n3n2)c(OC)cc1Cl | -0.809% |  |  |
| CCc1cc2c(=O)c(-c3ccc(F)cc3)c(C)oc2cc1OCC(=O)O | -9.84% | 1.16 µM [rising, single point] | 1.16 µM [rising, single point] |
| COCCNc1nc(N)c([N+](=O)[O-])c(NCCO)n1 | 5.97% | 23.1 µM [rising, partial curve, poor fit] |  |
| CSC1=NC(=O)/C(=C/c2ccc(SC)cc2)S1 | -12.9% |  |  |
| COc1ccccc1N1CCN(C(=O)c2cccc(N3C(=O)C4C5C=CC(C5)C4C3=O)c2)CC1 (stereo unspecified) | 84.8% | 11.6 µM [rising, partial curve] | 18.4 µM [rising, single point] |

Only AC50 [1] and cell number change, for some of the entries so far:

| Compound | AC50 [1] | cell number change |
| --- | --- | --- |
| COc1cc2c(cc1OC)C(C(=O)NCC1COc3ccccc3O1)C(c1cccnc1)N(C)C2=O (stereo unspecified) |  | 156% |
| CCc1ccc(N2CC(C(=O)NC3CC3)CC2=O)cc1 (stereo unspecified) | 29.1 µM [falling, single point] | 22.5% |
| O=C(CCNS(=O)(=O)c1ccc(Br)cc1)NCCCSc1ccccc1 | 8.2 µM [falling, partial curve, poor fit] | -8.42% |
| O=C(CCn1c(=O)c2ccccc2n(CC(=O)NC2CCCC2)c1=O)NCCc1ccc(Cl)cc1 |  | 28.1% |

(next part)

| Compound | cell number change | AC50 [1] | AC50 [2] |
| --- | --- | --- | --- |
| COc1ccc(OC)c(NC(=O)c2cc(-c3cc(C)cc(C)c3O)n[nH]2)c1 | -47.7% | 29.1 µM [falling, single point] | 29.1 µM [falling, single point] |
| COc1ccccc1N1CCN(C(=O)c2ccc(S(=O)(=O)N3CCCCC3)cc2)CC1 | -3.83% | 6.51 µM [rising, partial curve, poor fit] |  |
| COc1ccccc1-c1cc(SC)c(C#N)c(=O)o1 | -55.5% | 13 µM [falling, partial curve] | 11.6 µM [falling, partial curve] |
| CC(C)Oc1cccc(C(=O)Nc2ncn[nH]2)c1 | -0.265% | 29.1 µM [rising, single point] |  |
| Cc1ccc(-c2nnc(N3CCN(C(=O)COc4ccccc4)CC3)c3ccccc23)cc1 | 73.1% | 3.66 µM [rising, full curve] | 4.61 µM [rising, full curve] |
| CCOC(=O)c1cnn(Cc2ccccc2Cl)c1N |  | 4.61 µM [rising, single point] |  |
| CCN(CC)S(=O)(=O)c1ccc(C(=O)OCn2nnc3ccccc3c2=O)cc1 | 9.91% | 1.84 µM [falling, partial curve] | 0.731 µM [falling, full curve, poor fit] |
| N=C(N)SCc1ncccc1O | -29.8% | 18.4 µM [falling, single point] |  |
| Cc1nc(C)c(C(=O)OCC(=O)Nc2cccc(C)c2C)s1 |  | 14.6 µM [falling, partial curve] |  |
| Cc1ccccc1Sc1ncnc2onc(C)c12 | -87.5% |  | 23.1 µM [falling, partial curve] |
| Cc1ccccc1NC(=O)C1CCCN(S(=O)(=O)c2ccc3c(c2)C(C)(C)C(=O)N3C)C1 (stereo unspecified) | -7.49% | 5.8 µM [rising, single point] |  |
| COCCn1nnnc1C(c1cc2cc(C)ccc2[nH]c1=O)N1CCCCCC1 (stereo unspecified) | 18.5% |  | 0.82 µM [rising, partial curve, poor fit] |
| CC(C)C[C@@H](CC#N)N1CCN(CCc2ccccc2)CCC1=O | 10.5% | 20.6 µM [falling, single point] |  |
| NC(=O)Cc1nc2scc(-c3ccc(Cl)cc3)c2c(=O)[nH]1 | 40.8% |  | 2.31 µM [falling, partial curve] |
| Cc1ccc(NC(=O)/C(=C\c2ccco2)NC(=O)c2ccco2)cc1 | 3.95% | 35.5 µM [rising, single point] |  |
| COc1ccc(C(=O)NC(=S)NCc2cccnc2)cc1Cl | 51.3% | 5.62 µM [falling, single point] | 16.4 µM [rising, partial curve, poor fit] |
| COc1ccc(/C=N/NC(=O)Cc2n[nH]c(=O)[nH]c2=O)cc1 | -12.1% | 20.6 µM [rising, single point] |  |
| C/C(=N\NC(=O)C1(C)CC1(Br)Br)c1cccc(NC(=O)C2CCC2)c1 (stereo unspecified) |  | 2.06 µM [rising, partial curve, poor fit] |  |
| Cc1ncc(S(=O)(=O)c2ccccc2)c(-c2ccccc2Cl)n1 | 15.2% |  |  |
| COCCNC(=O)COc1ncnc2scc(-c3ccc(F)cc3)c12 | -35.1% |  | 11.6 µM [falling, partial curve, poor fit] |

| Compound | cell number change | AC50 [1] | AC50 [2] |
| --- | --- | --- | --- |
| CCCOc1ccc(-c2c(C(=O)N/N=C(\C)c3ccncc3)nnn2-c2nonc2N)cc1 | -21.2% | 4.61 µM [falling, full curve] | 0.00517 µM [falling, full curve, poor fit] |
| CC1CCCCC1NC(=O)CSc1nnc(CN2CCOCC2)n1C (stereo unspecified) | -27% | 23.1 µM [falling, partial curve] |  |
| CC1CCN(c2nc3ccccn3c(=O)c2C=O)CC1 | 17.8% | 0.58 µM [falling, full curve, poor fit] |  |
| COCc1ccc(CN2CCC(CO)(CC3CCCCO3)CC2)o1 (stereo unspecified) | -1.75% |  | 7.31 µM [falling, partial curve, poor fit] |
| Cc1ccnc(SCc2cn3c(C)cccc3n2)n1 | -4% |  |  |
| O=C(NCc1ccncc1)c1cc2ccccc2nc1Cl | 50% | 0.461 µM [rising, single point] | 29.1 µM [rising, single point] |
| Cc1ccc(NC(=O)c2c(C)noc2-c2snnc2C)cc1 | 4.65% | 0.00461 µM [rising, full curve] | 0.00461 µM [rising, full curve, poor fit] |
| O=C(Nc1nc2ccccc2[nH]1)c1ccccc1 |  | 5.8 µM [rising, single point] |  |
| CCN(C(=O)CSc1nnnn1-c1cc(C)ccc1OC)C1CCS(=O)(=O)C1 (stereo unspecified) | 3.33% | 5.8 µM [rising, single point] |  |
| CC(=O)Nc1ccc(NC(=O)c2nc(S(=O)(=O)Cc3cccc(C)c3)ncc2Cl)cc1 | 19.8% | 3.66 µM [falling, full curve] |  |
| Cc1ccc(S(=O)(=O)c2cc(OC(=O)c3ccco3)ccc2OC(=O)c2ccco2)cc1 | -35.4% | 5.17 µM [falling, full curve, poor fit] | 6.51 µM [falling, partial curve] |
| CCc1ccccc1NC(=O)c1ccc2snnc2c1 | 24.9% | 29.1 µM [rising, single point] |  |
| COc1ccc(N2CCN(C(=S)Nc3ccc(OC)cc3OC)CC2)cc1 | 12.9% |  |  |
| S=c1[nH]ncn1/N=C/c1ccc(N2CCOCC2)cc1 |  | 6.51 µM [rising, single point] |  |
| COc1ccc(S(=O)(=O)N2CCCC2CNC(=O)C(=O)NCc2cccs2)cc1 (stereo unspecified) | -19.2% | 18.4 µM [falling, single point] |  |
| Oc1cc(OCc2ccccc2)ccc1-c1[nH]ncc1-c1ccccc1 | -59.4% | 25.9 µM [falling, single point] |  |
| O=C(Nc1ccc2c(c1)OCO2)N1CCN(c2ccccc2)CC1 | 3.66% |  |  |
| CCOc1ccc(C(=O)NC(=S)N(Cc2ccccc2)Cc2ccccc2)cc1 | -29.2% | 8.2 µM [falling, partial curve] |  |
| Cc1cc(OCCCC(=O)NCCN2C(=O)S/C(=C\c3cccnc3)C2=O)ccc1Cl | 51.5% | 29.1 µM [falling, single point] | 4.61 µM [rising, full curve] |
